Screening data, single-dose tests

The chains behind the UniProt entries cited, without tags or fusion partners. Residues count along the entry.
UniProt P9WPC5, whole entry: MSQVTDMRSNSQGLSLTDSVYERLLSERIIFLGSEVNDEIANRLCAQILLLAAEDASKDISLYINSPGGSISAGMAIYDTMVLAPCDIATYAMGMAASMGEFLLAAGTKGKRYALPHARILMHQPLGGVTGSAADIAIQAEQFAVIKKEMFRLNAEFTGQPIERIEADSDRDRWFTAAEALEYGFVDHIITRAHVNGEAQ
UniProt P9WPC3, whole entry partner: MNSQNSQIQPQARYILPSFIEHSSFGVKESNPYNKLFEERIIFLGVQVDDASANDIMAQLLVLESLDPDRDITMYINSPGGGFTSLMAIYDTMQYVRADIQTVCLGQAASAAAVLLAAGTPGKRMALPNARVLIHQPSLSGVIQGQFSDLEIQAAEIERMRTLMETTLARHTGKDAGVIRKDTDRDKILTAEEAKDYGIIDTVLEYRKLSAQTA
UniProt Q4DA54, 1-478: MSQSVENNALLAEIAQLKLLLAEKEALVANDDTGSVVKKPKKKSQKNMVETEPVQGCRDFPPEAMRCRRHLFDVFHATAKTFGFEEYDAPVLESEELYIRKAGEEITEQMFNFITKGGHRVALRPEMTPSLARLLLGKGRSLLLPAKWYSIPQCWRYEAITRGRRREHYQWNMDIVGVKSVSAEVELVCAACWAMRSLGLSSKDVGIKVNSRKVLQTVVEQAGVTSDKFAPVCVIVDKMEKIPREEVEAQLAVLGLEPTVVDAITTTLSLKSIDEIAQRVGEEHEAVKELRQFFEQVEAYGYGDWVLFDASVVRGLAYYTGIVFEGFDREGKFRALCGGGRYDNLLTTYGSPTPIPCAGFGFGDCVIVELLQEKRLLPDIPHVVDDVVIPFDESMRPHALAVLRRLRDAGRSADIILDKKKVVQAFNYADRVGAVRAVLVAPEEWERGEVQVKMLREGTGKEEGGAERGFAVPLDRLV
UniProt Q8IDJ8, 1-583: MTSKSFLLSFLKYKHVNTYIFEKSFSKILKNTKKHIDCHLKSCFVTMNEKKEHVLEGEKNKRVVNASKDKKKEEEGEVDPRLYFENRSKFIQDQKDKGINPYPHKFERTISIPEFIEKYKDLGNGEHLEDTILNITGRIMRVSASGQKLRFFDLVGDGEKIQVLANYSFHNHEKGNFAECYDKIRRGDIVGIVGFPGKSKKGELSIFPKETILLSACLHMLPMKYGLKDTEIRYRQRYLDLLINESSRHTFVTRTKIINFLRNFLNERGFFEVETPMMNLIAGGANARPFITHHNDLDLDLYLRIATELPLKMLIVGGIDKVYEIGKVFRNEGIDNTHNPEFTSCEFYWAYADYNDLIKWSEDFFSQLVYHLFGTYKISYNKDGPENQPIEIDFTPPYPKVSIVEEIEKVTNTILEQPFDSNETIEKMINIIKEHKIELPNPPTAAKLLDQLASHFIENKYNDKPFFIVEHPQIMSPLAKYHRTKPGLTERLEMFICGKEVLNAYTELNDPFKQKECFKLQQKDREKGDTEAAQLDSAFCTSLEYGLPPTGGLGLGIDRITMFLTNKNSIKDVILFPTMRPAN
UniProt I6X8D2, whole entry: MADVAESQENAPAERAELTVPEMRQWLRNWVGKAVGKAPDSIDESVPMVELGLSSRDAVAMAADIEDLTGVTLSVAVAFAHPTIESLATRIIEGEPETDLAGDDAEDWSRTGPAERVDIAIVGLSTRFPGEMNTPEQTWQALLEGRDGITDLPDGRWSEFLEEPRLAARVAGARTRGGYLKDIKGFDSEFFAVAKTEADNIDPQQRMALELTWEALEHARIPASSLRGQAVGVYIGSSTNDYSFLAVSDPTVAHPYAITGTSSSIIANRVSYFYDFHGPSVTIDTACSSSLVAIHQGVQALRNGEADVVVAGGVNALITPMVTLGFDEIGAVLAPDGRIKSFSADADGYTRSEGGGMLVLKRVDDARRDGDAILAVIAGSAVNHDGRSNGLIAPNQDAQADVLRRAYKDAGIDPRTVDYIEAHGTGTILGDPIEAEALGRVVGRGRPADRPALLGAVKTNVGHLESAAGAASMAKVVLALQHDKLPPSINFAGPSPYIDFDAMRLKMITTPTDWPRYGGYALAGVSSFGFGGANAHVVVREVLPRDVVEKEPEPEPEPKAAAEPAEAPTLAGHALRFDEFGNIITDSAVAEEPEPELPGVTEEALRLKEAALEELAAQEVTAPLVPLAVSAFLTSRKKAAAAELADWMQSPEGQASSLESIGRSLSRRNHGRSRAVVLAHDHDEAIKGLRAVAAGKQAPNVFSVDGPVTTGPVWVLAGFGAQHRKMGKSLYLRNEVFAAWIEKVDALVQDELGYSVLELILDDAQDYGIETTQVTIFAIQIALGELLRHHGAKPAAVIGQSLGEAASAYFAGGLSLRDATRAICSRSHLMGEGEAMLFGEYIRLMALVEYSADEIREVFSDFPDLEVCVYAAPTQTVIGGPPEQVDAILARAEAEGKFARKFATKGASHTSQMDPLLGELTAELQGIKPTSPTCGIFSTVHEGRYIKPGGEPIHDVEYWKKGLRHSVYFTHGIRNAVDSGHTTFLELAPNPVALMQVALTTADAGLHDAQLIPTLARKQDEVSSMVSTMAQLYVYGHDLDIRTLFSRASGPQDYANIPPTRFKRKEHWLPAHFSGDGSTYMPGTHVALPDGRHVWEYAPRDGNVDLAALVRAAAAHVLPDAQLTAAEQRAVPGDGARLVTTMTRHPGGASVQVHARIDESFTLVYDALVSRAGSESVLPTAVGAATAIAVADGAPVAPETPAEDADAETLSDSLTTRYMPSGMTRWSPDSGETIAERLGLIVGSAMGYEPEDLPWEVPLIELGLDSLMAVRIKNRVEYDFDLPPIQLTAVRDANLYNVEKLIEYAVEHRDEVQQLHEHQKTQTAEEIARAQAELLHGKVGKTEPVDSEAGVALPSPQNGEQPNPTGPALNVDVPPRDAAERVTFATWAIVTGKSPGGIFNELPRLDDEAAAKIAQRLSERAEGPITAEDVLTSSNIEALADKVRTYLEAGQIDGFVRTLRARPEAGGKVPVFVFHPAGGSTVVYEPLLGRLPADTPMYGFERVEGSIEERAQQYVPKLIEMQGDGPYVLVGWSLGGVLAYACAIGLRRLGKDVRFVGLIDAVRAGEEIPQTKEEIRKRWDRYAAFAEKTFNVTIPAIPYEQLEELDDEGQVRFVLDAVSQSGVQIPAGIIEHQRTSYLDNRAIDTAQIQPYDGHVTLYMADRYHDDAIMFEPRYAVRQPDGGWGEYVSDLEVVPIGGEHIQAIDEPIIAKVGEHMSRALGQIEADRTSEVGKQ

Measurements from “University of Dundee, Small-Polar-MMV Screening Library” (2021), ChEMBL document CHEMBL3988442.

ClpP1P2: 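Protease assay of ClpP1P2, read by the AMC dye that it sets free. Target: ClpP1P2, Mycobacterium tuberculosis (UniProt P9WPC5 and UniProt P9WPC3). Concentration: 50 µM. Direction is inferred from only a few compounds that gave an IC50; most scored high, so higher reads as stronger inhibition. Most other retested compounds had strongly negative values. Size under these conditions: about 69,000 compounds, about 10 of them at 50% or above in at least one test.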
TcHisRS: 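Histidine-tRNA ligase, Trypanosoma cruzi CL Brener (UniProt Q4DA54). Enzyme assay of histidyl-tRNA synthetase; the read-out is not stated. Concentration: 30 µM. The record gives no direction; compounds that gave an IC50 in retests scored well above the rest, so higher reads as stronger inhibition. Size under these conditions: about 69,000 compounds, about 31 of them at 50% or above in at least one test.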
PfKRS1: 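Lysine-tRNA ligase, Plasmodium falciparum 3D7 (UniProt Q8IDJ8). Enzyme assay of the cytosolic lysyl-tRNA synthetase in 384-well plates, read by luminescence. Tested at 30 µM. Direction is inferred from only a few compounds that gave an IC50; most scored high, so higher reads as stronger inhibition. About 69,000 compounds were tested under these conditions; 0.071% (about 49) showed 50% or more at least once.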
Pks13 thioesterase: 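Enzyme assay of the thioesterase domain of polyketide synthase 13; the read-out is not stated. Target: Polyketide synthase Pks13, Mycobacterium tuberculosis (UniProt I6X8D2). Compounds at 30 µM. Higher reads as stronger inhibition (inferred from which compounds were picked for retests). About 67,000 compounds were tested under these conditions; 0.46% (about 300) showed 50% or more at least once.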

Values are the deposited “Percent Effect”, in %. The controls that fix the scale are not given in the record; negative values are as filed. This is an unselected part of the compounds tested.

{"compound": "Cc1csc(CN2CC[C@H]3C[C@H](c4noc(C)n4)O[C@@H]3C2)n1", "ClpP1P2": -14.03, "TcHisRS": 0, "PfKRS1": 2.633, "Pks13 thioesterase": -14.35}
{"compound": "COCC(=O)N1CC[C@H]2O[C@@H](C)C[C@H]2C1", "ClpP1P2": -10.28, "TcHisRS": -2.941, "PfKRS1": 1.724, "Pks13 thioesterase": 4.539}
{"compound": "CC(C)N1C(=O)CC(NC(=O)c2cc(Cl)sc2Cl)C1=O", "stereo": "stereo not drawn", "ClpP1P2": 1.867, "TcHisRS": 3.704, "PfKRS1": 2.473, "Pks13 thioesterase": -9.427}
{"compound": "CN(CC(=O)NCC(F)(F)F)C(=O)c1ccc(=O)[nH]c1", "ClpP1P2": -0.5815, "TcHisRS": 12.02, "PfKRS1": 0.9694, "Pks13 thioesterase": -16.13}
{"compound": "O=S(=O)(NCCCn1ccc2ccccc21)N1CCCCC1", "ClpP1P2": -4.286, "TcHisRS": 5.357, "PfKRS1": 0.4442, "Pks13 thioesterase": 14.37}
{"compound": "O=C(Cc1ccccc1F)N1CCC[C@@H]1Cn1c(=O)oc2ccccc21", "ClpP1P2": 2.586, "TcHisRS": -9.848, "PfKRS1": 0.3821, "Pks13 thioesterase": -23.7}
{"compound": "Cc1ccc(-c2nc(CN3CCn4c(C)nnc4C3)co2)cc1", "ClpP1P2": -31.14, "TcHisRS": 3.955, "PfKRS1": 1.268, "Pks13 thioesterase": -1.038}
{"compound": "N#Cc1cc(F)ccc1CN1CCCCC1Cn1cccn1", "stereo": "stereo not drawn", "ClpP1P2": -18.13, "TcHisRS": 10.53, "PfKRS1": -0.01318, "Pks13 thioesterase": 5.945}
{"compound": "CC(C)CCC(=O)N1CCC(c2nnc(CN(C)CCO)n2C)CC1", "ClpP1P2": -2.819, "TcHisRS": 6.704, "PfKRS1": 1.78, "Pks13 thioesterase": -41.11}
{"compound": "O=C(NC1(c2cccc(F)c2)CCOCC1)c1ccoc1", "ClpP1P2": -12.7, "TcHisRS": -1.674, "PfKRS1": 1.204, "Pks13 thioesterase": -9.222}
{"compound": "COc1ccc(C(=O)N2C[C@@H](C(=O)O)[C@H](c3ccccc3)C2)c(O)c1", "ClpP1P2": 5.687, "TcHisRS": -8.14, "PfKRS1": 7.197, "Pks13 thioesterase": -33.48}
{"compound": "CCOc1ccc(S(=O)(=O)N(C)Cc2cnn(CC)c2)cc1", "ClpP1P2": -14.77, "TcHisRS": 0, "PfKRS1": -1.303, "Pks13 thioesterase": -8.639}
{"compound": "CCC(=O)N(C)CC(=O)Nc1ccc(Br)cn1", "ClpP1P2": -0.458, "TcHisRS": -1.132, "PfKRS1": 0.8972, "Pks13 thioesterase": -8.878}
{"compound": "CC(C)n1ccc2c(C(=O)NC3CN4CCC3CC4)cccc21", "stereo": "stereo not drawn", "ClpP1P2": -32.09, "TcHisRS": 0.5848, "PfKRS1": 1.867, "Pks13 thioesterase": -4.547}
{"compound": "COCc1nccc(C2CCCN(Cc3ccc(C#N)cc3F)C2)n1", "stereo": "stereo not drawn", "ClpP1P2": -5.182, "TcHisRS": 8.621, "PfKRS1": 6.154, "Pks13 thioesterase": 11.81}
{"compound": "Cc1cc(-n2cncn2)ccc1C(=O)Nc1ccc(N2CCCC2)cn1", "ClpP1P2": 3.268, "TcHisRS": 0.5236, "PfKRS1": -0.7465, "Pks13 thioesterase": -29.86}
{"compound": "CC(C)CC(=O)N1CC(=O)N(Cc2ccco2)CC(O)C1", "stereo": "stereo not drawn", "ClpP1P2": 5.474, "TcHisRS": -1.124, "PfKRS1": 3.515, "Pks13 thioesterase": -22.52}
{"compound": "Cn1ncc2c1NC(=O)CC2c1c(Cl)cccc1Cl", "stereo": "stereo not drawn", "ClpP1P2": -11.95, "TcHisRS": 0, "PfKRS1": 7.081, "Pks13 thioesterase": -22.16}
{"compound": "Cc1ccc(-c2cc(C(=O)O)sn2)cc1", "ClpP1P2": 4.616, "TcHisRS": 3.093, "PfKRS1": 0.04835, "Pks13 thioesterase": 12.41}
{"compound": "Cc1ccc(S(=O)(=O)N2CCc3ccc(F)cc32)cc1C(=O)O", "ClpP1P2": -16.16, "TcHisRS": -6.215, "PfKRS1": -0.5164, "Pks13 thioesterase": -6.309}
{"compound": "CCC(=O)c1ccc(OCC(=O)N(C)C(C)c2ccon2)cc1", "stereo": "stereo not drawn", "ClpP1P2": 9.687, "TcHisRS": 2.762, "PfKRS1": 2.645, "Pks13 thioesterase": -19.53}
{"compound": "CCCc1cnc(C)nc1N1CCC(F)(F)CC1", "ClpP1P2": 0.004933, "TcHisRS": 6.383, "PfKRS1": 3.846, "Pks13 thioesterase": -19.54}
{"compound": "Cc1csc(C(C)(C)NCc2ncc(-c3ccc(F)cc3)o2)n1", "ClpP1P2": -7.657, "TcHisRS": 6.383, "PfKRS1": 0.6083, "Pks13 thioesterase": -13.67}
{"compound": "COCc1nc(C(=O)N2CCCC(n3cccn3)C2)cs1", "stereo": "stereo not drawn", "ClpP1P2": -3.164, "TcHisRS": 1.901, "PfKRS1": -0.4666, "Pks13 thioesterase": -7.391}
{"compound": "CC(C)N1CCC(N2CCN(C3CCC3)CC2CCO)CC1", "stereo": "stereo not drawn", "ClpP1P2": -8.259, "TcHisRS": -0.813, "PfKRS1": 3.67, "Pks13 thioesterase": -27.48}
{"compound": "CCn1nc(C)c2nnn(CC(=O)Nc3c(C)cccc3C)c(=O)c21", "ClpP1P2": -1.163, "TcHisRS": -2.732, "PfKRS1": -1.038, "Pks13 thioesterase": -12}
{"compound": "CCC(C)(C)NCc1nc(C(C)(C)NC(=O)OC(C)(C)C)no1", "ClpP1P2": -2.71, "TcHisRS": 9.184, "PfKRS1": 6.452, "Pks13 thioesterase": -7.015}

Some entries from above, unchanged:

{"compound": "CN(CC(=O)NCC(F)(F)F)C(=O)c1ccc(=O)[nH]c1", "ClpP1P2": -0.5815, "TcHisRS": 12.02, "PfKRS1": 0.9694, "Pks13 thioesterase": -16.13}
{"compound": "CCC(=O)c1ccc(OCC(=O)N(C)C(C)c2ccon2)cc1", "stereo": "stereo not drawn", "ClpP1P2": 9.687, "TcHisRS": 2.762, "PfKRS1": 2.645, "Pks13 thioesterase": -19.53}
{"compound": "CCC(C)(C)NCc1nc(C(C)(C)NC(=O)OC(C)(C)C)no1", "ClpP1P2": -2.71, "TcHisRS": 9.184, "PfKRS1": 6.452, "Pks13 thioesterase": -7.015}